Test results from PubChem BioAssay AID328 (DTP/NCI, 2004).
The list is a part of this screen's results and no random one: it is rich in T/C values a quarter to a half above the control, in often repeated tests (any T/C) and in doses without a T/C. Further doses and runs are listed elsewhere. T/C gives the treated animals as a percentage of the vehicle group. Some entries give survivors of the animals treated and no T/C: the source holds a T/C of zero for them, seemingly a mark for toxic or unscored doses. Some doses without a T/C left all or most animals alive at the check, yet need not have been tolerated: the source hardly ever lists a survival T/C far under the control, and the zero likely stands for such cases as well. Counts of survivors are from the toxicity check (mostly the fifth day) where no day follows; animals may have died later. Schedule codes are those of the source, taken here to give the interval after Q, in days (D) or hours (H), and the number of doses after X. For survival time, the PubChem record calls one and a half times the control and up active, and a quarter to a half above the control has no call in these data; cut-offs in other NCI protocols can differ. Some entries hold several experiments; the values are given in rising order. Some T/C values carry the count of animals alive at the toxicity check (mostly the fifth day); without a count, all were alive then.

Test system: BDF1 mice, P388 leukemia ip, median survival T/C
Test: NCI In Vivo Anticancer Drug Screen. Data for tumor model P388 Leukemia (intraperitoneal) in B6D2F1 (BDF1) mice
Details: T/C endpoint: median survival time, higher T/C = longer survival
Summary of the method: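 Steps: implant the tumour, treat one group with compound and another with vehicle, record survival, then divide treated by control.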

[1] = dose: 50.0 mg/kg/injection, schedule: Q01DX009 (ip), vehicle: saline with Tween-80
[2] = dose: 200.0 mg/kg/injection, schedule: Q01DX009 (ip), vehicle: saline with Tween-80
[3] = dose: 100.0 mg/kg/injection, schedule: Q04DX003 (ip), vehicle: saline with Tween-80
[4] = dose: 400.0 mg/kg/injection, schedule: Q04DX003 (ip), vehicle: Klucel (hydroxypropylcellulose) (HPC)
[5] = dose: 200.0 mg/kg/injection, schedule: Q04DX003 (ip), vehicle: saline with Tween-80
[6] = dose: 400.0 mg/kg/injection, schedule: Q04DX003 (ip), vehicle: saline with Tween-80

For `CCCC[P+](c1ccccc1)(c1ccccc1)c1ccccc1`, the T/C (dose: 1.25 mg/kg/injection, schedule: Q01DX009 (ip), vehicle: saline) was 144 % of control, the T/C (dose: 2.5 mg/kg/injection, schedule: Q01DX009 (ip), vehicle: saline) was 125 % of control and the T/C (dose: 5.0 mg/kg/injection, schedule: Q01DX009 (ip), vehicle: saline) was 138 % of control. For the same molecule, the T/C (dose: 10.0 mg/kg/injection, schedule: Q01DX009 (ip), vehicle: saline) was 130 [5 of 6 alive] and 131 % of control, the T/C (dose: 20.0 mg/kg/injection, schedule: Q01DX009 (ip), vehicle: saline) was 127 % of control [5 of 6 alive] and the survivor count (dose: 80.0 mg/kg/injection, schedule: Q01DX009 (ip), vehicle: saline) was 0 of 6.
In the case of `CC[Se](CC)CC.CC[Se](CC)CC.C[CH2][Ge]([CH2]C)[O][Ge]([CH2]C)[CH2]C`, the survivor count [1] is reported as 6 of 6 and the survivor count [2] is reported as 5 of 6.
In the case of `O=[N+]([O-])c1ccc(S(=O)(=O)c2ccc([N+](=O)[O-])cc2)cc1`, the survivor count [3] is reported as 6 of 6.
In the case of `OC(CNc1ccc(CSc2ccccc2)cc1)c1ccccc1` (stereo not given), the T/C (dose: 200.0 mg/kg/injection, schedule: Q01DX009 (ip), vehicle: other) is reported as 132 % of control.
For `COc1cc([C@@H]2c3cc4c(cc3[C@@H](OC3OC5COC(C)OC5C(O)C3O)[C@H]3COC(=O)[C@H]23)OCO4)cc(OC)c1O` (stereo not given in full), the T/C (dose: 50.0 mg/kg/injection, schedule: Q04DX003 (ip), vehicle: Klucel (hydroxypropylcellulose) (HPC)) was 140 % of control [7 of 8 alive], the survivor count (dose: 60.0 mg/kg/injection, schedule: Q04DX003 (ip), vehicle: saline) was 9 of 10 and the survivor count (dose: 83.3 mg/kg/injection, schedule: Q04DX003 (ip), vehicle: Klucel (hydroxypropylcellulose) (HPC)) was 5 of 8.
In the case of `ClC(Cl)(Cl)c1cccc(C(Cl)(Cl)Cl)c1`, the T/C [4] is reported as 135 % of control, the survivor count [4] is reported as 1 of 6 and the survivor count (dose: 600.0 mg/kg/injection, schedule: Q04DX003 (ip), vehicle: Klucel (hydroxypropylcellulose) (HPC)) is reported as 1 of 6.
With `COc1ccc(C=Nc2c(N)[nH]c(=S)[nH]c2=O)cc1` the T/C (dose: 400.0 mg/kg/injection, schedule: Q04DX002 (ip), vehicle: saline with Tween-80) was 127 and 128 % of control and the T/C (dose: 600.0 mg/kg/injection, schedule: Q04DX002 (ip), vehicle: saline with Tween-80) was 134 % of control.
With `C[N+](C)(C)CCC[N+](C)(C)C` the T/C (dose: 50.0 mg/kg/injection, schedule: Q01DX006 (ip), vehicle: saline) was 131 % of control, the T/C (dose: 100.0 mg/kg/injection, schedule: Q01DX006 (ip), vehicle: saline) was 125 % of control and the T/C (dose: 150.0 mg/kg/injection, schedule: Q01DX006 (ip), vehicle: saline) was 137 % of control.
`CCCCCC[C@@H](O)[C@@H]1C2=C(C[C@H]([C@H](O)[C@@H]3CC=CC(=O)O3)CC3=C(C(=O)OC3=O)[C@@H]1O)C(=O)OC2=O` was tested, and the survivor count (dose: 1.0 mg/kg/injection, schedule: Q01DX009 (ip), vehicle: saline) was 0 of 6, the survivor count (dose: 2.2 mg/kg/injection, schedule: Q01DX009 (ip), vehicle: saline) was 0 of 6 and the survivor count (dose: 3.3 mg/kg/injection, schedule: Q01DX009 (ip), vehicle: saline) was 0 of 6.
For `CC1OC(OCc2cc(O)c3c(c2)C(C2OC(CO)C(O)C(O)C2O)c2cccc(O)c2C3=O)C(O)C(O)C1O` (stereo not given), the survivor count [5] was 6 of 6 and the survivor count [6] was 5 of 6.
With `C=CCc1ccccc1OC` the survivor count [2] was 3 of 6.
For `CCCCCCCCNc1ccccc1`, the survivor count (dose: 200.0 mg/kg/injection, schedule: Q01DX001 (ip), vehicle: saline sonified) was 6 of 6.
With `CC(=O)OC1CC2(O)C(CCC3(C)C(c4ccc(=O)oc4)CCC32O)C2(C)CCC(OC3OC(CO)C(O)C(O)C3O)C=C12` (stereo not given) the survivor count (dose: 250.0 micrograms/kg/injection, schedule: Q01DX010 (ip), vehicle: saline) was 6 of 6 and the survivor count (dose: 500.0 micrograms/kg/injection, schedule: Q01DX010 (ip), vehicle: saline) was 6 of 6.
In the case of `CC(C)c1ccc2c(c1)CC[C@H]1[C@](C)(CN=C(N)CCl)CCC[C@]21C`, the survivor count (dose: 12.5 mg/kg/injection, schedule: Q01DX009 (ip), vehicle: Klucel (hydroxypropylcellulose) (HPC)) is reported as 5 of 6, the survivor count (dose: 25.0 mg/kg/injection, schedule: Q01DX009 (ip), vehicle: Klucel (hydroxypropylcellulose) (HPC)) is reported as 6 of 6 and the survivor count (dose: 50.0 mg/kg/injection, schedule: Q01DX009 (ip), vehicle: Klucel (hydroxypropylcellulose) (HPC)) is reported as 3 of 6. The survivor count (dose: 100.0 mg/kg/injection, schedule: Q01DX009 (ip), vehicle: Klucel (hydroxypropylcellulose) (HPC)) was 0 of 6 and the survivor count (dose: 200.0 mg/kg/injection, schedule: Q01DX009 (ip), vehicle: Klucel (hydroxypropylcellulose) (HPC)) was 0 of 6.
In the case of `CO/N=C1\CC(C)N2C(=O)C(C(C)C)NC(=O)C(NC(=O)c3c4nc5c(C(=O)NC6C(=O)NC(C(C)C)C(=O)N7C(C)CC(O)C7C(=O)N(C)CC(=O)N(C)C(C(C)C)C(=O)OC6C)ccc(C)c5oc-4c(C)c(=O)c3N)C(CO)OC(=O)C(C)N(C)C(=O)CN(C)C(=O)C12` (stereo not given), the T/C (dose: 0.4 mg/kg/injection, schedule: Q01DX009 (ip), vehicle: saline + alcohol) is reported as 130 % of control, the T/C (dose: 0.8 mg/kg/injection, schedule: Q01DX009 (ip), vehicle: saline + alcohol) is reported as 140 % of control and the T/C (dose: 6.4 mg/kg/injection, schedule: Q01DX001 (ip), vehicle: saline + alcohol) is reported as 134 % of control.
`c1coc(-c2ncnc3c2Cc2ccccc2-3)c1` was tested, and the survivor count (dose: 225.0 mg/kg/injection, schedule: Q01DX009 (ip), vehicle: Klucel (hydroxypropylcellulose) (HPC)) was 4 of 6 and the survivor count (dose: 335.0 mg/kg/injection, schedule: Q01DX009 (ip), vehicle: Klucel (hydroxypropylcellulose) (HPC)) was 0 of 6.
In the case of `CCN(C(=O)c1ccc(C(=O)N(CC)c2ccccc2)cc1)c1ccccc1`, the survivor count [6] is reported as 6 of 6.
With `CC(C)(C)NC(=S)Nc1ccc2c(c1)nc(-c1ccccc1)c1cc(NC(=S)NC(C)(C)C)ccc12` the T/C [6] was 125 % of control.
For `COS(C)(=O)=O`, the survivor count (dose: 100.0 mg/kg/injection, schedule: Q01DX010 (ip), vehicle: saline) was 6 of 6.
`CN(CCO)/N=N/c1nc[nH]c1C(N)=O` was tested, and the survivor count (dose: 12.5 mg/kg/injection, schedule: Q01DX009 (ip), vehicle: saline) was 5 of 6, the survivor count (dose: 50.0 mg/kg/injection, schedule: Q01DX009 (ip), vehicle: saline) was 5 of 6 and the survivor count (dose: 100.0 mg/kg/injection, schedule: Q01DX009 (ip), vehicle: saline) was 6 of 6.
With `O=S(=O)(C1=CCCCC1)C1=CCCCC1` the survivor count [5] was 6 of 6 and the survivor count [6] was 6 of 6.
In the case of `CC(=O)CC(=O)NCCCN1CCCCC1`, the survivor count [1] is reported as 1 of 6 and the survivor count [3] is reported as 0 of 6.
`COC12C(COC(N)=O)C3=C(C(=O)C(C)=C(N4CC4)C3=O)N1CC1NC12` (stereo not given) was tested, and the survivor count (dose: 0.14 mg/kg/injection, schedule: Q04DX003 (ip), vehicle: saline with Tween-80) was 3 of 6, the survivor count (dose: 1.1 mg/kg/injection, schedule: Q04DX003 (ip), vehicle: saline with Tween-80) was 1 of 6 and the survivor count (dose: 1.7 mg/kg/injection, schedule: Q04DX003 (ip), vehicle: saline with Tween-80) was 5 of 6. For the same molecule, the survivor count (dose: 2.5 mg/kg/injection, schedule: Q04DX003 (ip), vehicle: saline with Tween-80) was 6 of 6.
`CC1(C)N=C(N)N=C(N)N1c1cccc(Cl)c1` was tested, and the T/C (dose: 4.4 mg/kg/injection, schedule: Q04DX003 (ip), vehicle: saline) was 127 % of control, the T/C (dose: 6.6 mg/kg/injection, schedule: Q04DX003 (ip), vehicle: saline) was 127 % of control and the T/C (dose: 16.0 mg/kg/injection, schedule: Q04DX003 (ip), vehicle: saline) was 136 % of control. The T/C (dose: 24.75 mg/kg/injection, schedule: Q04DX003 (ip), vehicle: saline) was 140 % of control, the survivor count (dose: 75.0 mg/kg/injection, schedule: Q04DX003 (ip), vehicle: saline) was 4 of 6 and the survivor count (dose: 150.0 mg/kg/injection, schedule: Q04DX003 (ip), vehicle: saline) was 0 of 6.
